Results are given in words; binding and its absence hold for the method and conditions named. Binding seen in cells or lysates may run through a third protein. Some entries that bind do so weakly or less than the wild type.
Molecular target: RNF126 (mouse (endogenous in testis)) (UniProt Q91YL2)
Test: co-IP; RNF126-specific antibody on protein A/G magnetic beads, Rnf126+/+ mouse testis lysate (25 mM Tris, 150 mM NaCl, 1 mM EDTA, 1% NP40, pH 7.4), 4 °C overnight; IgG and Rnf126-/- testis lysate as controls; Western blot

The chains behind the UniProt entries cited, without tags or fusion partners.
UniProt Q91YL2: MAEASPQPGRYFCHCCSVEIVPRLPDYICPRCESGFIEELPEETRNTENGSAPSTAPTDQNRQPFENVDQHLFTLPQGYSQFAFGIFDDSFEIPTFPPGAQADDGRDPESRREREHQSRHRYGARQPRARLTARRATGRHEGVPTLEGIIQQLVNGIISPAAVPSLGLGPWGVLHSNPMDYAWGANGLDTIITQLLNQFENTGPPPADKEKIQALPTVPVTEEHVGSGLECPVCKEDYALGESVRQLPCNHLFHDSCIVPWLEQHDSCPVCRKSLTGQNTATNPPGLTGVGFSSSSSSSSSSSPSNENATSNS
UniProt Q9Z1R2: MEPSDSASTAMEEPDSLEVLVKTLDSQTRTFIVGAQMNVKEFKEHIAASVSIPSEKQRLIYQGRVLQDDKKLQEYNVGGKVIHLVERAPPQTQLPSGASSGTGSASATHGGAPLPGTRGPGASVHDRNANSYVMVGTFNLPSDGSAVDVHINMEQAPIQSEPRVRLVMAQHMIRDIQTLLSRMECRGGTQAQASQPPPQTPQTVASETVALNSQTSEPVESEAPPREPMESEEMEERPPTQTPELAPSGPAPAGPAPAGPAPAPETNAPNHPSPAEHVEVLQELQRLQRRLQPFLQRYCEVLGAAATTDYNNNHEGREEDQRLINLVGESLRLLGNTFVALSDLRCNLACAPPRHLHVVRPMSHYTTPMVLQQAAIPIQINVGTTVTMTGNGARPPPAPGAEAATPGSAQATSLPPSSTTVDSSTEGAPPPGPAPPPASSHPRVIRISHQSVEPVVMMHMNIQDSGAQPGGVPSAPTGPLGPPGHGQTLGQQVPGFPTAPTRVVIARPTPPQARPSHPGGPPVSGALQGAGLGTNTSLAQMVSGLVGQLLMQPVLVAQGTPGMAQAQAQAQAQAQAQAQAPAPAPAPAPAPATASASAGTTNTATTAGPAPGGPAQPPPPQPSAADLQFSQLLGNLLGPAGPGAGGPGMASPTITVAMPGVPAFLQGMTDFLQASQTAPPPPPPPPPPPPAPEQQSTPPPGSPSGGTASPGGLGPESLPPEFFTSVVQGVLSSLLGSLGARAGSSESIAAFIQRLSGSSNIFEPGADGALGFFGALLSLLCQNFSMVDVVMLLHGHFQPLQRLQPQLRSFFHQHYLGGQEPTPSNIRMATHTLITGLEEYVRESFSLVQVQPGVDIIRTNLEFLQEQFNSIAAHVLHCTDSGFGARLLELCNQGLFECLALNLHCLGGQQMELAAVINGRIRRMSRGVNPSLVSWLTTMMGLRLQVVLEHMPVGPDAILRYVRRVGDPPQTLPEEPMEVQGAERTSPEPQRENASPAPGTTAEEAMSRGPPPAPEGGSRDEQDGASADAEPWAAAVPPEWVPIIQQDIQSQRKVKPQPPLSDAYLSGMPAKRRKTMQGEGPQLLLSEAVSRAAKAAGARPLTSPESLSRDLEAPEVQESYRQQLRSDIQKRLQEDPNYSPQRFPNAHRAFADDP

Question: BAG6 (from UniProt Q9Z1R2 1-1154) was tested. Which binding did it give?
Answer: binds

Reference: publication PMC12102401
